Laboratory results published in PMC8384837.
Where a chain is given by its changes, count along the chain named. The list shows a part of the results.

Legend:
Settings in all cases: yeast three-hybrid, YBZ-1, SC-Leu-His + 0.5 mM 3-AT, 4 days
[1] = target: T1, PUM1 PUF domain R5-ATR C1007A + R1008T + Q1011R (Homo sapiens) (UniProt Q14671)
T1 sequence: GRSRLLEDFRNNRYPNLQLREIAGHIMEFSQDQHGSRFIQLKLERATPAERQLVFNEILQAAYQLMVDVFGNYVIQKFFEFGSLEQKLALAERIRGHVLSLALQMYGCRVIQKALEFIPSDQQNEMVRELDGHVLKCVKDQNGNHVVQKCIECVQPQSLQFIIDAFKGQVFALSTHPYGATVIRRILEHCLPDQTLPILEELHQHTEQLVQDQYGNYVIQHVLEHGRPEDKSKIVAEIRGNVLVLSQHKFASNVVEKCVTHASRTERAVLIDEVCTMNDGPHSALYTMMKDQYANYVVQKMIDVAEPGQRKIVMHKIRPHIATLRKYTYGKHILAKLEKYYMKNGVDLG

[2] = target: T2, PUM1 PUF domain R5-FHG C1007F + R1008H + Q1011G (Homo sapiens) (UniProt Q14671)
T2 sequence: T1 sequence with A180F, T181H, R184G

[3] = target: T3, PUM1 PUF domain R5-FQR C1007F + R1008Q + Q1011R (Homo sapiens) (UniProt Q14671)
T3 sequence: T1 sequence with A180F, T181Q

[4] = target: T4, PUM1 PUF domain R5-FRY C1007F + Q1011Y (Homo sapiens) (UniProt Q14671)
T4 sequence: T1 sequence with A180F, T181R, R184Y

[5] = target: T5, PUM1 PUF domain R5-GQW C1007G + R1008Q + Q1011W (Homo sapiens) (UniProt Q14671)
T5 sequence: T1 sequence with A180G, T181Q, R184W

[6] = target: T6, PUM1 PUF domain R5-HFF C1007H + R1008F + Q1011F (Homo sapiens) (UniProt Q14671)
T6 sequence: T1 sequence with A180H, T181F, R184F

[7] = target: T7, PUM1 PUF domain R5-KGG C1007K + R1008G + Q1011G (Homo sapiens) (UniProt Q14671)
T7 sequence: T1 sequence with A180K, T181G, R184G

[8] = target: T8, PUM1 PUF domain R5-RAK C1007R + R1008A + Q1011K (Homo sapiens) (UniProt Q14671)
T8 sequence: T1 sequence with A180R, T181A, R184K

[9] = target: T9, PUM1 PUF domain R5-RCR C1007R + R1008C + Q1011R (Homo sapiens) (UniProt Q14671)
T9 sequence: T1 sequence with A180R, T181C

[10] = target: T10, PUM1 PUF domain R5-RGC C1007R + R1008G + Q1011C (Homo sapiens) (UniProt Q14671)
T10 sequence: T1 sequence with A180R, T181G, R184C

[11] = target: T11, PUM1 PUF domain R5-RHF C1007R + R1008H + Q1011F (Homo sapiens) (UniProt Q14671)
T11 sequence: T1 sequence with A180R, T181H, R184F

[12] = target: T12, PUM1 PUF domain R5-RMT C1007R + R1008M + Q1011T (Homo sapiens) (UniProt Q14671)
T12 sequence: T1 sequence with A180R, T181M, R184T

[13] = target: T13, PUM1 PUF domain R5-RNW C1007R + R1008N + Q1011W (Homo sapiens) (UniProt Q14671)
T13 sequence: T1 sequence with A180R, T181N, R184W

[14] = target: T14, PUM1 PUF domain R5-RQA C1007R + R1008Q + Q1011A (Homo sapiens) (UniProt Q14671)
T14 sequence: T1 sequence with A180R, T181Q, R184A

[15] = target: T15, PUM1 PUF domain R5-RQE C1007R + R1008Q + Q1011E (Homo sapiens) (UniProt Q14671)
T15 sequence: T1 sequence with A180R, T181Q, R184E

[16] = target: T16, PUM1 PUF domain R5-RQL C1007R + R1008Q + Q1011L (Homo sapiens) (UniProt Q14671)
T16 sequence: T1 sequence with A180R, T181Q, R184L

[17] = target: T17, PUM1 PUF domain R5-RSG C1007R + R1008S + Q1011G (Homo sapiens) (UniProt Q14671)
T17 sequence: T1 sequence with A180R, T181S, R184G

[18] = target: T18, PUM1 PUF domain R5-RTR C1007R + R1008T + Q1011R (Homo sapiens) (UniProt Q14671)
T18 sequence: T1 sequence with A180R

[19] = target: T19, PUM1 PUF domain R5-SAS C1007S + R1008A + Q1011S (Homo sapiens) (UniProt Q14671)
T19 sequence: T1 sequence with A180S, T181A, R184S

[20] = target: T20, PUM1 PUF domain R5-TAR C1007T + R1008A + Q1011R (Homo sapiens) (UniProt Q14671)
T20 sequence: T1 sequence with A180T, T181A

GGCUAGAACUAGUGGAUCCCCCGGCGCCCGGCGGCUCGAGCCCGGGUAAGUGUAAAUAGUCUGCAUGCCGCCGGGCGCCAUGCCUGCAGGUCGACUCUAGAAAACAUG
binding signal (log2 enrichment (interaction score)) [1]: -1.04 | binding signal (log2 enrichment (interaction score)) [2]: -1.04 | binding signal (log2 enrichment (interaction score)) [3]: -1.02 | binding signal (log2 enrichment (interaction score)) [4]: -0.75 | binding signal (log2 enrichment (interaction score)) [5]: -1.05 | binding signal (log2 enrichment (interaction score)) [6]: -0.99 | binding signal (log2 enrichment (interaction score)) [7]: -1.12 | binding signal (log2 enrichment (interaction score)) [8]: -0.95 | binding signal (log2 enrichment (interaction score)) [9]: -0.85 | binding signal (log2 enrichment (interaction score)) [10]: -0.85 | binding signal (log2 enrichment (interaction score)) [11]: -0.81 | binding signal (log2 enrichment (interaction score)) [12]: -0.83 | binding signal (log2 enrichment (interaction score)) [13]: -0.91 | binding signal (log2 enrichment (interaction score)) [14]: -0.93 | binding signal (log2 enrichment (interaction score)) [15]: -0.74 | binding signal (log2 enrichment (interaction score)) [16]: -1.05 | binding signal (log2 enrichment (interaction score)) [17]: -1.03 | binding signal (log2 enrichment (interaction score)) [18]: -1.05 | binding signal (log2 enrichment (interaction score)) [19]: -1.85 | binding signal (log2 enrichment (interaction score)) [20]: -0.98
